Test results taken from patent publication US20170129955A1.
Results are given in words; binding and its absence hold for the method and conditions named. Some results given as binding are weak or reduced against the parent protein; the word gives no strength.

Amino acid sequences for entries named in this document (tags omitted). A change or cut given only in a name is not applied to a line headed by its entry.
UniProt P26012: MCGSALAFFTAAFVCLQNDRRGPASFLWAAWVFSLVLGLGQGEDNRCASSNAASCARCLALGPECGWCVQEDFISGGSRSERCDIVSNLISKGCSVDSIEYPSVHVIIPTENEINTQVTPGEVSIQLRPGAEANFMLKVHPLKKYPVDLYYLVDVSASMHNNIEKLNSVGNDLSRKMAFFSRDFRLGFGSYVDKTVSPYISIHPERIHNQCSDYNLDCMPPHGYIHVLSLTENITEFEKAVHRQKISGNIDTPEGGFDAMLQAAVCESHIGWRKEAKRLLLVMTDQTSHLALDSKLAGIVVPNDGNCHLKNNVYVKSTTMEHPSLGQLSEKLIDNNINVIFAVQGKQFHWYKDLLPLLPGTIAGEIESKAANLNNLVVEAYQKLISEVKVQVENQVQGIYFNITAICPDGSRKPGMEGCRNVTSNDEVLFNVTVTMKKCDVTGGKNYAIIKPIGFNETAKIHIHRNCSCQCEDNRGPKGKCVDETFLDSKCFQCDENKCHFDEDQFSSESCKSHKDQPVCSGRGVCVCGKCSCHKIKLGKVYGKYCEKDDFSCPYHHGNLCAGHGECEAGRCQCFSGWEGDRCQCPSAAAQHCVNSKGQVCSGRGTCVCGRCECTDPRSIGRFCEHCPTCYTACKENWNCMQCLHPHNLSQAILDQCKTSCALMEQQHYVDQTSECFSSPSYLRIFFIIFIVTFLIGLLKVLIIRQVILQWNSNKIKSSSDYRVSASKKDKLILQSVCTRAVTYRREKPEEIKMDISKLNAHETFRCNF
UniProt P06756: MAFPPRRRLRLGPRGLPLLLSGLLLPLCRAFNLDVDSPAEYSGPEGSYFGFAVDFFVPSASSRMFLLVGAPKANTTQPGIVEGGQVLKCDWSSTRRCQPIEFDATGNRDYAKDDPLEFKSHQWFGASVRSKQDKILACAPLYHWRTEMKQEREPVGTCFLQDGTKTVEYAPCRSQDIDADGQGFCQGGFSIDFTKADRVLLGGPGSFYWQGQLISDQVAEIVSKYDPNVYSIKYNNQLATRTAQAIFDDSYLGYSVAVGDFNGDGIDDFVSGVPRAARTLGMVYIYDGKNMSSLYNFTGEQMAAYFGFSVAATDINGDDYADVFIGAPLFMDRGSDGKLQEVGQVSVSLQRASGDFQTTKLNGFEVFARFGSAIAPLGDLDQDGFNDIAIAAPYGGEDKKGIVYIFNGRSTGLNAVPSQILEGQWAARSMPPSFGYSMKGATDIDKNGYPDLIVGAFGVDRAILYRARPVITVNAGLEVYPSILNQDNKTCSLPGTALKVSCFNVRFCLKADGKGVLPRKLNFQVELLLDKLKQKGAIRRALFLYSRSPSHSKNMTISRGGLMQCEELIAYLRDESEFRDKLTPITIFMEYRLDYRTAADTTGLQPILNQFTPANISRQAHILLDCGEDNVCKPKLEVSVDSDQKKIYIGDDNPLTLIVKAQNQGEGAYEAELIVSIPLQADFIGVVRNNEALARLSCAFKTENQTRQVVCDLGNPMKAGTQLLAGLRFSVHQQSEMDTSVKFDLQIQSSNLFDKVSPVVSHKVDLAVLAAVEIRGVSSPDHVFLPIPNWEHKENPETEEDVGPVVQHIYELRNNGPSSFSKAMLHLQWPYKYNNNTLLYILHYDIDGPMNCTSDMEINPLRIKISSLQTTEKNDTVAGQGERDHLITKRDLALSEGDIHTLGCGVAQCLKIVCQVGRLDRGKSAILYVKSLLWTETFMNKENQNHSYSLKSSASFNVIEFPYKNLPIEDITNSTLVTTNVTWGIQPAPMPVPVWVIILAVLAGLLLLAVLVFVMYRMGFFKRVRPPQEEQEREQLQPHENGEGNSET

B1: 37E1B5 antibody (antibody, V domains shown)
VH: EVQLVESGGGLVQPGGSLNLSCAVSGFVFSRYWMSWVRQAPGKGLEWIGEINPDSSTINYTSSLKDKFIISRDNAKNTLYLQMNKVRSEDTALYYCACLITTEDYWGQGTSVTVSS
VL: QIVLTQSPSSMYASLGERVTIPCKASQDINSYLSWFQQKPGKSPKTLIYYANRLVDGVPSRFSGSGSGQDYSLTISSLEYEDMGIYYCLQYDEFPYTFGGGTKLEIKA
modifications: glycan in heavy chain CDR2 (SEQ ID NO:7)
B2: 37E1B5 Fab (Fab, V domains shown)
VH: B1 VH
VL: B1 VL
modifications: heavy chain CDR2 glycosylation

Key:
[1] = molecular target: integrin β8 on β8 expressing 293 cells (human) (UniProt P26012); assay: staining of β8 expressing 293 cells (FIG. 2A)
clasped αvβ8 (human) = clasped αvβ8 (human) (UniProt P06756); assay: size-exclusion purified complex, negative-stain EM
unclasped αvβ8 (human) = unclasped αvβ8 (human) (UniProt P06756); assay: size-exclusion purified complex, negative-stain EM

| binding [1] | binding (clasped αvβ8 (human)) | binding (unclasped αvβ8 (human)) | Binder |
| --- | --- | --- | --- |
| binds |  |  | B1 |
|  | binds | binds | B2 |
